Results as given in PubChem BioAssay AID493014 (National Center for Advancing Translational Sciences (NCATS), 2011).
The list shows a part of the results. The main result of the screen is listed elsewhere. These columns were measured beside it and carry no call. The list favours compounds with an active or inconclusive main result. Potencies come from curve fits of mixed quality, noted in brackets.

Assay: qHTS Assay to Find Inhibitors of Chronic Active B-Cell Receptor Signaling
Conditions: ABC-DLBCL IkBa-CBG/CBR reporter, luminescence ratio (green luciferase fused to IkBa over red control in TMD8 lymphoma cells), 4 h
Summary of the method: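 Doxycycline induced both beetle luciferases in TMD8 lymphoma cells; IKK-driven degradation limits the IkappaBalpha-fused green signal, while red luminescence normalises for cell number and nonspecific effects. Compounds tested up to 46 uM, 4 hrs.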

[1] = measured here: CBR red luminescence, cell number
[2] = measured here: IkBa-CBG green luminescence

| Compound | AC50 [1] | AC50 [2] |
| --- | --- | --- |
| Nc1c(-c2cccs2)cnc2c(-c3ccc(F)cc3)cnn12 | 0.631 µM [rising, full curve, poor fit] |  |
| NC(=O)NC(=O)COC(=O)/C=C/c1cccc(Br)c1 | 12.6 µM [falling, single point] |  |
| CCOc1ccc(S(=O)(=O)Nc2ccc(C(=O)N3CCC3)cc2)cc1 | 4.61 µM [rising, full curve, poor fit] |  |
| O=C(NC(=S)Nc1ccc2oc(=O)ccc2c1)c1cccc(F)c1 | 3.55 µM [rising, full curve, poor fit] |  |
| O=C(CSc1nc(-c2ccccc2Cl)ns1)c1ccc(Cl)cc1 | 5.8 µM [rising, partial curve, poor fit] |  |
| CC(C)c1nc2n[nH]c(N)c2c2c1CSC(C)(C)C2 | 18.4 µM [rising, single point] |  |
| O=C(NCCc1ccccc1)C1CCN(S(=O)(=O)c2ccccc2)CC1 | 32.6 µM [rising, single point] |  |
| O=C(/C=C/c1ccccc1)Nc1cccc(C(=O)O)c1 | 0.562 µM [falling, full curve] |  |
| C=CCOc1ccc(CNc2nccs2)cc1OC | 10.3 µM [rising, partial curve] | 20.6 µM [falling, single point] |
| COc1cc(OC)cc(-c2nc3ccccc3c(=O)n2OC(=O)c2ccccc2C)c1 | 20.6 µM [falling, partial curve, poor fit] |  |
| CC(Cc1cccs1)NC(=O)Nc1ccc(F)cc1 (stereo not drawn) | 0.461 µM [rising, partial curve, poor fit] |  |
| O=C(O)c1ccc(/C=N/NC(=O)c2ccc(F)cc2)cc1 | 7.08 µM [falling, partial curve] |  |
| COc1ccc(-c2nn(CCC#N)cc2C(=O)Nc2cccc(C(=O)O)c2)cc1[N+](=O)[O-] | 3.98 µM [falling, single point] |  |
| Cc1cc2cc(CCNC(=O)CC(C)(C)C)c(=O)[nH]c2cc1C | 14.6 µM [rising, partial curve, poor fit] |  |
| CC(=O)c1c(C)[nH]c(C(=O)OCC(=O)Nc2cc(C)on2)c1C | 6.51 µM [falling, single point] |  |
| Cc1nnc(SCC(=O)Nc2nccs2)s1 | 20.6 µM [falling, partial curve] |  |
| N#C/C(=C\C=C\c1ccccc1[N+](=O)[O-])C(=O)NC1CCCCC1 | 7.94 µM [falling, partial curve] | 7.08 µM [falling, partial curve, poor fit] |
| O=C(Cn1c2c(c(=O)n3ncnc13)CCC2)N/N=C/c1cccs1 | 17.8 µM [rising, single point] |  |
| O=C(c1ccc(F)cc1)N1CCCC(c2ccccc2)C1 (stereo not drawn) | 8.91 µM [rising, partial curve, poor fit] |  |
| O=C(CSc1nccn(-c2ccc(Br)cc2)c1=O)Nc1ccccc1F | 2.31 µM [falling, single point] |  |
| COCCCn1c(SCC(=O)N2CCOCC2)nc2cc(Cl)ccc2c1=O | 0.651 µM [falling, full curve, poor fit] |  |
| N/C(=N\OC(=O)c1ccc2ccccc2c1)c1ccccc1Cl | 10 µM [falling, partial curve, poor fit] |  |

Four of the compounds above, bar-delimited:
Compound | AC50 [1] | AC50 [2]
O=C(CSc1nc(-c2ccccc2Cl)ns1)c1ccc(Cl)cc1 | 5.8 µM [rising, partial curve, poor fit] | 
O=C(O)c1ccc(/C=N/NC(=O)c2ccc(F)cc2)cc1 | 7.08 µM [falling, partial curve] | 
COCCCn1c(SCC(=O)N2CCOCC2)nc2cc(Cl)ccc2c1=O | 0.651 µM [falling, full curve, poor fit] | 
N/C(=N\OC(=O)c1ccc2ccccc2c1)c1ccccc1Cl | 10 µM [falling, partial curve, poor fit] | 

Some of the entries so far, bar-delimited.
Compound | AC50 [1] | AC50 [2]
NC(=O)NC(=O)COC(=O)/C=C/c1cccc(Br)c1 | 12.6 µM [falling, single point] | 
CCOc1ccc(S(=O)(=O)Nc2ccc(C(=O)N3CCC3)cc2)cc1 | 4.61 µM [rising, full curve, poor fit] | 

More structures follow.

| Compound | AC50 [1] | AC50 [2] |
| --- | --- | --- |
| Clc1ccc(CNCCCSc2ncccn2)cc1 | 1.12 µM [rising, full curve, poor fit] |  |
| Cc1ccc(S(=O)(=O)CCC(=O)OCC(=O)NCCc2ccc(S(N)(=O)=O)cc2)cc1 | 0.13 µM [falling, full curve, poor fit] |  |
| COc1cccc(C(=O)NN=C2CCCC2)c1 | 5.01 µM [falling, partial curve] |  |
| CCc1cccc(NC(=S)N(CCCOC(C)C)C2CCN(C(C)=O)CC2)c1 | 3.16 µM [rising, partial curve] |  |
| COC(=O)c1ccc(C2C(Oc3ccccc3C)C(=O)N2CCc2ccc(OC)c(OC)c2)cc1 (stereo not drawn) | 20 µM [falling, single point] |  |
| O=C1/C(=C\c2ccsc2)NC(=S)N1c1ccccc1 | 11.2 µM [falling, partial curve] |  |
| COc1ccc(OCC(=O)Nc2ccccc2O)cc1 | 0.92 µM [falling, full curve] |  |
| CCOC(=O)c1oc2cc(O)ccc2c(=O)c1-c1ccccc1OC | 10 µM [falling, partial curve] |  |
| O=C(/C=C/Sc1ncn[nH]1)c1ccc(Cl)cc1 | 11.2 µM [falling, partial curve] | 3.55 µM [falling, single point] |
| COc1cccc(-c2ncc3ccccc3c2COC(=O)c2ccc(F)cc2)c1 | 5.17 µM [falling, full curve] |  |
| COc1cccc(CNC(=O)COC(=O)c2nc(Cl)c(Cl)c(Cl)c2Cl)c1 |  | 29.1 µM [falling, single point] |
| CCOc1cc2[nH]c(=S)n(CCN3CCCCC3CC)c(=O)c2cc1OCC (stereo not drawn) | 32.6 µM [falling, single point] |  |
| O=C(Nc1ccncc1)c1cc(-c2cccc(Br)c2)nc2ccccc12 | 16.4 µM [falling, partial curve, poor fit] |  |
| Cc1ccc(/C=N/NC(=O)CSc2nc3ccccc3[nH]2)o1 | 15.8 µM [falling, partial curve] |  |
| Cc1c(CBr)[n+](=O)c2c(n1[O-])C(Br)CCC2Br (stereo not drawn) | 35.5 µM [rising, single point] |  |
| COc1ccc(/C=C(\NC(=O)c2cccs2)C(=O)Nc2cccc3ccccc23)cc1OC | 3.26 µM [rising, full curve, poor fit] |  |
| Cc1nc(SCC#N)c2c(C)c(C)sc2n1 | 0.82 µM [rising, full curve, poor fit] |  |
| COc1cccc(NC(=O)N2CCCc3ccccc32)c1 | 31.6 µM [falling, single point] |  |
| CCOC(=O)c1sc(N(Cc2ccccc2)C(=O)COC(=O)c2ccc(O)cc2)nc1C | 23.1 µM [falling, single point] |  |
| COc1ccc(CCN(Cc2nc3ccccc3c(=O)[nH]2)C(=O)c2ccco2)cc1OC | 0.708 µM [rising, full curve, poor fit] |  |
| Cc1ccc(Nc2nnc(SC(C)C(=O)NCC3CCCO3)s2)cc1C (stereo not drawn) | 6.51 µM [rising, partial curve, poor fit] |  |
| COc1ccc(-c2nc3ccc(C)cn3c2NCc2ccc3c(c2)OCO3)cc1 | 35.5 µM [falling, single point] |  |

| Compound | AC50 [1] | AC50 [2] |
| --- | --- | --- |
| CCc1nc2ccccc2c(C(=O)O)c1C | 9.2 µM [falling, partial curve, poor fit] |  |
| COc1cc(OC)c(NC(=S)Nc2cc(Cl)cc(Cl)c2)cc1Cl | 0.0651 µM [rising, full curve, poor fit] |  |
| Cn1c(O)c(N=NC(=O)Cn2c(C(F)(F)F)nc3ccccc32)c2ccccc21 | 4.61 µM [rising, single point] |  |
| Cc1ccc(CCC(=O)Nc2ccccc2F)s1 | 10 µM [falling, partial curve] |  |
| COc1cc(C(=S)N2CCN(C(c3ccccc3)c3ccccc3)CC2)cc(OC)c1O | 15.8 µM [falling, single point] |  |
| Cc1cc2c(sc3ccccc32)c(C)n1 | 35.5 µM [rising, single point] |  |
| O=C(O)c1ccc(N=NN2CCCCC2)cc1 | 4.47 µM [falling, partial curve] |  |
| O=C(Nc1ccccc1)Nc1ccc(Cl)c([N+](=O)[O-])c1 | 32.6 µM [falling, single point] |  |
| CC(/C=N\Nc1nnc2c(n1)[nH]c1c(C)cccc12)=C\c1ccco1 | 7.94 µM [falling, partial curve, poor fit] |  |
| Cc1ccc(NC(=O)CCc2ccc(S(=O)(=O)NC3CCCCC3)cc2)cc1 | 35.5 µM [falling, single point] |  |
| C=CCN(CC=C)C(=O)c1ccccc1NC(=O)c1ccccc1C | 2.82 µM [falling, partial curve, poor fit] |  |
| CCOc1ccc(Nc2ccc([N+](=O)[O-])c3nonc23)cc1 | 0.708 µM [rising, partial curve, poor fit] |  |
| COc1cc(NC(=O)c2cnn3c(C)cc(C)nc23)c(OC)cc1Cl | 20.6 µM [rising, partial curve, poor fit] |  |
| COc1cc(C(=O)NCCC2=CCCCC2)ccc1OCc1c(C)noc1C | 6.51 µM [rising, partial curve, poor fit] |  |
| Cc1cc(C)c(C(=O)/C=C/c2ccco2)c(=O)[nH]1 | 11.2 µM [falling, partial curve, poor fit] |  |
| COc1cc(NC(=O)c2oc3ccccc3c2C)ccc1NC(=O)c1ccco1 | 8.91 µM [falling, single point] |  |
| O=C(O)c1ccccc1NS(=O)(=O)c1ccc(NN=Cc2ccc(F)cc2)c([N+](=O)[O-])c1 | 20.6 µM [rising, single point] |  |
| Cc1nc2nc[nH]n2c(=O)c1NS(=O)(=O)c1ccc([N+](=O)[O-])cc1 | 35.5 µM [rising, single point] |  |
| Nc1nc2ccccc2n1C(=O)c1ccc(F)cc1 | 2.24 µM [falling, full curve] |  |
| Cc1cccc(S(=O)(=O)Nc2ccc(-c3ccc4nncn4n3)cc2)c1 | 23.1 µM [rising, partial curve, poor fit] |  |
| O=C1CC(C(=O)O)S/C(=N\NC(=O)c2ccc(F)cc2)N1 (stereo not drawn) | 2.91 µM [rising, full curve, poor fit] |  |
